# Patent publication US9783615B2, “Combination treatment of cancer” (UNIVERSITÉ DE LIÈGE, priority 2012, dated 2017)
# “Also recorded” adds a separate entry of the source. For at least one compound, name, drawing or mass did not settle the structure.
# Columns and labels:
# [1] = target: T1, recombinant catalytic domain of MT4-MMP (MT4CAT) (Homo sapiens, UniProt Q9ULZ9); assay: Inhibition of MT4-MMP enzymatic activity: cleavage of quenched fluorogenic peptide substrate (TACE substrate M-2255); format: biochemical
# T1 construct: Enzymatic activity of the recombinant catalytic domain of MT4-MMP (MT4CAT) was monitored
# T1 sequence (Q9ULZ9 126-295 limits assumed): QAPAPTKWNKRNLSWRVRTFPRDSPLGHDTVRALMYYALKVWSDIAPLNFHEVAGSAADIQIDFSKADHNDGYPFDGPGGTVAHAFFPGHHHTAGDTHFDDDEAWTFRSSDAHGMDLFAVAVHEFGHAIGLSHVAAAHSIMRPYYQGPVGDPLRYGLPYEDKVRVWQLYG
# Experimental: Inhibition of enzymatic activity of MT4-MMP was quantified by measuring the cleavage of quenched fluorogenic peptide substrate by the recombinant catalytic domain of MT4-MMP (MT4-CAT) in the presence or absence of MT4-MMP blocking antibodies (scFV). MT4-CAT (4.5 μM) was pre-incubated with MT4-MMP blocking antibodies (14 nM) for 30 min at 4° C. in buffer containing (50 mM Tris-HCl (pH 7.4); 5 mM CaCl2; ZnCl2 1 μM; 0.005%, Brij, 2% DMSO) before incubation with 30 μM of the fluorogenic substrate (pro-tumor necrosis factor-α converting enzyme (TACE) fluorogenic peptide substrate; Mca-(endo-1a-Dap(Dnp))-TNF-α (−5 to +6) amide (human), M-2255, Bachem AG, Switzerland).
# Neutralizing capacity of antibodies. The enzymatic activity of the recombinant catalytic domain of MT4-MMP (MT4CAT) was monitored by the cleavage of quenched fluorogenic peptide substrate pro-tumor necrosis factor-α converting enzyme (TACE) (M-2255, BACHEM) and using Luminescence spectrometer (SPECTRA MAX; GIMINI). […] The cleavage of quenched fluorogenic peptide was monitored by measuring relative fluorescence units (RFU) during the incubation time (seconds) in the absence of inhibitor (MTCAT+No inhibitor) or in the presence of BB94 (20 μM) or of the scFV clones (14 nM). […]
# [2] = test system: MDA-MB231 cells expressing MT4-MMP; assay: In vitro 3D Matrigel proliferation assay with DNA quantification; format: cell-based, human; details: single treatment 10 μM, 7 days
# Experimental: The medium was changed every three days.
# Inhibition of MT4-MMP-dependent mitogenic effect of cancer cells was performed in 3D culture matrix. […] The medium was changed every three days.
compound,measurement,setting,value
CNC(=O)[C@H](Cc1ccccc1)NC(=O)[C@H](CC(C)C)[C@H](CSc1cccs1)C(=O)NO [BB94],inhibition of MT4-MMP activity,"[1]; BB94 at 100 μM, MT4CAT 3 nM, substrate 30 μM",complete inhibition
same,dose dependence of inhibition of MT4CAT activity,[1]; increasing concentrations of inhibitor,dose-dependent inhibition; also recorded: dose-dependent effect
same,inhibition of proliferation of cancer cells (DNA content),[2],partially inhibited
